From the supplement of paper PMC6078165
Values are relative to the signal before dosing, not to a vehicle control; the signal also falls without drug.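 Fibroblast labels name human fibroblasts: mostly primary ones from tissues such as uterus (C12385, HUF), lung (H6013), bone (Hs27A), adrenal (HADF) and skin (WS1), plus mammary HMF and breast cancer-associated Hs343T. The cancer cells are basal-like or mesenchymal-like triple-negative breast cancer lines. The paper calls a changed response a hit when it shifts by more than 3x the replicate standard deviation. The tissue of the other fibroblasts is not given here.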

System: BT20
Assay: relative JC-1 red fluorescence (viability) vs pre-drug, coculture with fibroblast (fraction); higher = more viable cancer cells
Conditions: 10 µM
Method: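 JC-1 labelled TNBC cells cocultured 1:1 (1,500 cells each) with CellTrace Violet stained primary or stromal fibroblasts in 384-well plates in FluoroBrite medium, treated with one of 42 anticancer drugs at 0.1, 1, 10 or 100 uM. JC-1 red fluorescence (mitochondrial integrity in cancer cells only) was read by plate reader every 8 h for 72 h. Values are normalised to each well's pre-drug value. The stock of one drug was tenfold lower, so its dose labels may be too high.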

C[C@]12CC[C@@H]3c4ccc(O)cc4C[C@@H](CCCCCCCCC[S+]([O-])CCCC(F)(F)C(F)(F)F)[C@H]3[C@@H]1CC[C@@H]2O (some centres undefined) [Fulvestrant]
relative JC-1 red fluorescence
Conditions | 8 h | 16 h | 24 h | 32 h | 40 h | 48 h | 56 h | 64 h | 72 h
coculture fibroblast: C12385 | 0.942 | 0.894 | 0.842 | 0.789 | 0.746 | 0.73 | 0.7 | 0.689 | 0.679
coculture fibroblast: H6013 | 0.807 | 0.78 | 0.9267 | 0.9246 | 0.895 | 0.9005 | 0.8984 | 0.8853 | 0.89
coculture fibroblast: H6019 | 0.9 | 0.891 | 0.87 | 0.829 | 0.808 | 0.82 | 0.801 | 0.797 | 0.791
coculture fibroblast: H6076 | 0.886 | 0.857 | 0.894 | 0.875 | 0.837 | 0.8209 | 0.7967 | 0.787 | 0.77
coculture fibroblast: H6231 | 0.777 | 0.858 | 0.85 | 0.9131 | 0.871 | 0.8197 | 0.821 | 0.817 | 0.805
coculture fibroblast: HADF | 0.788 | 0.832 | 0.909 | 0.878 | 0.828 | 0.906 | 0.856 | 0.839 | 0.871
coculture fibroblast: HCFa | 0.779 | 0.901 | 0.873 | 0.818 | 0.92 | 0.897 | 0.871 | 0.862 | 0.819
coculture fibroblast: HCPF | 0.749 | 0.902 | 0.922 | 0.8687 | 0.8291 | 0.7959 | 0.777 | 0.7899 | 0.765
coculture fibroblast: HHSteC | 0.912 | 0.924 | 0.909 | 0.836 | 0.943 | 0.94 | 0.907 | 0.915 | 0.8926
coculture fibroblast: HMF | 0.902 | 0.849 | 0.89 | 0.846 | 0.812 | 0.767 | 0.738 | 0.702 | 0.6678
coculture fibroblast: HPFa | 0.915 | 0.948 | 0.918 | 0.87 | 0.847 | 0.82 | 0.7954 | 0.7654 | 0.7118
coculture fibroblast: HUF | 0.938 | 0.877 | 0.849 | 0.795 | 0.771 | 0.746 | 0.729 | 0.722 | 0.703
coculture fibroblast: Hs5 | 0.734 | 0.866 | 0.8896 | 0.8281 | 0.7827 | 0.756 | 0.732 | 0.706 | 0.696
coculture fibroblast: Hs27A | 0.823 | 0.718 | 0.9754 | 0.868 | 0.847 | 0.906 | 0.972 | 0.958 | 0.923
coculture fibroblast: Hs343T | 0.78 | 0.872 | 0.888 | 0.827 | 0.791 | 0.745 | 0.706 | 0.703 | 0.688
coculture fibroblast: WS1 | 0.916 | 0.874 | 0.819 | 0.76 | 0.711 | 0.699 | 0.68 | 0.671 | 0.678
